{
  "source": "PubChem BioAssay AID527",
  "about": "(NMMLSC, 2006)",
  "note": "Some of the results follow.",
  "data": [
    {"assay": "S. aureus quorum sensing inhibitors, primary screen, RNAIII-GFP reporter, flow cytometry (AID 527);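 also: 0% = AIP-stimulated control and 100% = unstimulated bacteria without AIP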", "conditions": "S. aureus RN6390 RNAIII-GFP reporter, AIP-induced, flow cytometry 3 h; measured here: inhibition of GFP MFI; at 2 µM; stronger effect = higher value", "units": {"inhibition": "%"}, "values": [
      {"smiles": "Fc1ccccc1NC1CCN(Cc2ccccc2)CC1", "inhibition": 0.1},
      {"smiles": "N#CC1(Nc2ccccc2)CCN(CCc2ccccc2)CC1", "inhibition": 15.3}
    ]}
  ]
}
